## Library screening results

Sequences of proteins named here, by UniProt entry; tags and fusion partners are left off.
UniProt E9BF75, entry or part of it: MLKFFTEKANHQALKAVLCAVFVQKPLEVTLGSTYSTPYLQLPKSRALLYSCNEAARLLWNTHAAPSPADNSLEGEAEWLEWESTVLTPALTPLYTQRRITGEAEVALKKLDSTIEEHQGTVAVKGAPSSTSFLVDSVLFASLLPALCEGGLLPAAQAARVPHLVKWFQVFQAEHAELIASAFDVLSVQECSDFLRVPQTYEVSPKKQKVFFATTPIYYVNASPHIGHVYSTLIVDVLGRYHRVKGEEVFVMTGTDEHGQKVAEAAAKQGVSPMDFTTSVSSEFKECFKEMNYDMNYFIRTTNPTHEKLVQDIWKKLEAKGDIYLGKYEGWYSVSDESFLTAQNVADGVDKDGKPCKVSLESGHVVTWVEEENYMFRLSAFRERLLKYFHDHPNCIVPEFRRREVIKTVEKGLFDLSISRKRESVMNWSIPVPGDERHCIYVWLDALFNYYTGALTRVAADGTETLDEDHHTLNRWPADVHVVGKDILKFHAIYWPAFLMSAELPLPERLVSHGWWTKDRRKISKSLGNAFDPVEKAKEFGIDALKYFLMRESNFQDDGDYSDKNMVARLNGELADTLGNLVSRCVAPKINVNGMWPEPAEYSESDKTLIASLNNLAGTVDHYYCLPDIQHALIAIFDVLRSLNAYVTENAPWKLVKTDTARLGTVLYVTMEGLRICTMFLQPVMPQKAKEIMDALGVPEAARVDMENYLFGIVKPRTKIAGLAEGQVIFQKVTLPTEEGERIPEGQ

Source: ChEMBL document CHEMBL3988442, “University of Dundee, Small-Polar-MMV Screening Library” (2021).

LdMetRS: 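Methionyl-tRNA synthetase (putative), Leishmania donovani (UniProt E9BF75). Primary screen of methionyl-tRNA synthetase; the read-out is not stated. The test concentration is not given. The values are filed as inhibition. Size under these conditions: about 68,000 compounds, about 24 of them at 50% or above in at least one test.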
Mtb heat-shock: 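Assay on Mycobacterium tuberculosis, filed only as a heat shock assay from Cornell; the read-out is not stated. The concentration is filed as 10 mM, unlikely as a test dose, so the dose is not known. Higher reads as stronger inhibition (inferred: compounds with an IC50 in retests scored well above the rest). Size under these conditions: about 69,000 compounds, about 930 of them at 50% or above in at least one test.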

All values are in %. The controls that fix the scale are not given in the record; negative values are as filed. Compounds were drawn at random from those tested, without regard to their results. A dash means the value is not listed here; it may have been measured.

SMILES	LdMetRS	Mtb heat-shock
CC(C)(CNC(=O)C(C)(C)c1ccccc1F)C(N)=O	-5.707%	-4.561%
CN(Cc1cc2n(n1)CCCN(C(=O)N1CCCC1)C2)Cc1nccs1	9.138%	-26.13%
Cc1ccc(C(O)CNC(=O)c2cccnc2O)cc1 (centres unmarked)	8.934%	-2.191%
Cc1nn(C)cc1CN1CCCCCC1c1ccc(Cl)cc1 (centres unmarked)	11.27%	-13.73%
CC(C)n1c(=O)nc2n1C(=O)N(c1ccccc1)C2	10.56%	5.757%
Cc1ccc(CC(=O)NC2CCN(c3cccc(Cl)c3)C2)cn1 (centres unmarked)	15.65%	-9.666%
CCC(=O)CNC(=O)CCn1nc2ccccn2c1=O	5.455%	-9.939%
Cc1nnc(C(C)N2CCc3[nH]c4ccccc4c3C2)o1 (centres unmarked)	20.87%	-7.463%
Cc1cc(OCC(=O)NS(=O)(=O)c2c(C)noc2C)ccc1Cl	8.589%	-12.08%
Cc1nc(-c2cccc(N3CCC(N4CCCC4)CC3)c2)cs1	14.29%	6.659%
CNC(=O)CS(=O)(=O)C1CCN(S(=O)(=O)c2c(F)cccc2F)CC1	3.448%	-0.8689%
CCOc1ncccc1CNC(=O)N1CCCC1c1cccs1 (centres unmarked)	15.25%	-26.66%
O=C(c1cscn1)N1C[C@@H](Oc2cccnc2)[C@H]2OCCC[C@H]21	2.244%	-
COc1nc2c(cc1C(=O)NCCc1nc3ccccc3s1)CCC2	12.73%	15.59%
CC(=O)N1CCc2nc(-c3ccc(F)cc3)nc(NC(C)C)c2CC1	5.168%	-16.68%
Cc1cc(-c2cnc(N3CCC(O)CC3)nc2-c2cccnc2C)on1	0%	-8.771%
CN1CCN(C(=O)[C@@H]2C[C@@H]3CCN(c4cccc(F)c4)C[C@H]3O2)CC1	10.14%	-
Cc1noc(C)c1C(C)NC(=O)N1CCN(c2cccs2)CC1 (centres unmarked)	8.333%	2.567%
CCCS(=O)(=O)NCC(O)c1c(Cl)cccc1Cl (centres unmarked)	18.99%	8.531%
Cc1nc(CN2C[C@@H]3CCCO[C@@H]3[C@H](NC(=O)CC3CC3)C2)cs1	12.59%	-
CC(C)(C)c1noc(CCCC(=O)N2CCNC(=O)C2)n1	12.99%	-98.43%
COc1cccc(OCC(=O)N2CCC3(CC2)[C@H](O)C[C@@H]3OC)c1	2.941%	-4.996%
O=C(NC1CCCc2nc(N3CCCCC3)ncc21)C1CCCC1 (centres unmarked)	11.98%	-0.7524%
COc1ccc(Cn2cc(C(=O)N(C)CCN(C)C)nn2)cc1	2.145%	7.147%
N#Cc1ccccc1OCCN1CCC(C(=O)N2CCOCC2)CC1	10.63%	5.107%
CNC(=O)COc1c(F)cc(Br)cc1C(C)=O	2.804%	1.292%
O=C(CN1CCCC1Cn1cncn1)Nc1cccnc1 (centres unmarked)	14.16%	62.16%
NC(=O)NC(=O)CCN1CCCC1c1cccc2c1OCCO2 (centres unmarked)	5.836%	19.3%
CCN(CC)C1COc2ccc(Br)cc2C1=O (centres unmarked)	6.757%	-4.22%
Cc1ccc(NC2CCN(C(=O)c3cscn3)CC2)nn1	20.45%	-10.92%
CC(C)C(=O)NC(Cc1cc(N(C)C)nc(C2CC2)n1)c1ccccc1 (centres unmarked)	10.38%	8.523%
COCCOC(=O)N1CC2=CC(C)(C)COc3ccc(OC)c(c32)C1	11.78%	-2.459%
CC1CN(C(=O)Nc2cccc(CN3CCOC3=O)c2)CCO1 (centres unmarked)	18.98%	3.893%
CN(C)CC1CN(Cc2coc(-c3cccc(F)c3)n2)CCO1 (centres unmarked)	10.03%	-0.1012%
CN(CCN1CCCCCC1)C(=O)c1cc(CN2CCC(O)CC2)on1	10.34%	10.84%
CN1CCCCC1Cc1nc2c(cc1C(N)=O)CCC2 (centres unmarked)	22.66%	-127.2%
Cc1ccc(S(=O)(=O)n2ccn(C(=O)CC(C)C)c2=O)cc1	18.08%	18.42%
O=C(CO)N1CCC(c2ccnc(Nc3cc(C(F)(F)F)ccn3)n2)C1 (centres unmarked)	6.962%	7.076%
Cc1ccc(C(=O)N(C)Cc2csc(Br)c2)c(=O)[nH]1	12.96%	17.22%
CCCOc1ccc(C(=O)N2CCN3CCNC(=O)C3C2)cc1Cl (centres unmarked)	15.14%	24.96%
[H][C@]12CC[C@]([H])(CN(C(=O)c3c[nH]c(=O)c(Cl)c3)C1)N(CC1CCC1)C2	-	-23.49%
Cc1cc(C)cc(CN2CCC3(CC2)CC(Nc2ncccn2)CO3)c1.O=C(O)C(F)(F)F (centres unmarked)	-	-30.68%
CCc1ncnc2c1CCN(C(=O)c1ccccn1)CC2	11.24%	-
Cl.Fc1ccc(Cc2cnc(C3CCCN3)cn2)cc1 (centres unmarked)	-	-27.64%

4 of the entries, repeated:

CN(C)CC1CN(Cc2coc(-c3cccc(F)c3)n2)CCO1 (centres unmarked) read LdMetRS: 10.03%; Mtb heat-shock: -0.1012%.
Cc1cc(OCC(=O)NS(=O)(=O)c2c(C)noc2C)ccc1Cl read LdMetRS: 8.589%; Mtb heat-shock: -12.08%.
CNC(=O)COc1c(F)cc(Br)cc1C(C)=O read LdMetRS: 2.804%; Mtb heat-shock: 1.292%.
Cc1nnc(C(C)N2CCc3[nH]c4ccccc4c3C2)o1 (centres unmarked) read LdMetRS: 20.87%; Mtb heat-shock: -7.463%.